Each number is a percent effect as filed. How 0% and 100% were set is not recorded. Most values in the screen are low, and negative values occur. This is an unselected part of the compounds tested.

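Whole-cell assay for inhibitors of Mycobacterium tuberculosis growth, labelled Cornell in the record; the read-out is not stated. The concentration is filed as 10 mM, unlikely as a test dose, so the dose is not known. The record gives no direction; compounds strong in two other growth screens of this library score well above the rest, so higher reads as stronger inhibition. About 53,000 compounds were tested under these conditions; 1.7% (about 900) showed 50% or more at least once.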

{"compound": "COCCNC(=O)Cn1c(-c2ccc(F)cc2)nc(C)c(CCO)c1=O", "percent effect": 3.31}
{"compound": "CC(=O)N(Cc1ncc(C)o1)C1CCN(Cc2nnc(C3CC3)o2)C1", "stereo": "stereo unspecified", "percent effect": -30.33}
{"compound": "O=C(CCn1cncn1)Nc1ccc(F)cc1OCC1CC1", "percent effect": -3.217}
{"compound": "COc1cccc(CC(C)NC(=O)NCCNC(C)=O)c1", "stereo": "stereo unspecified", "percent effect": 11.1}
{"compound": "O=C(Cc1ccccc1)N1CC(=O)N(Cc2ccco2)CC(O)C1", "stereo": "stereo unspecified", "percent effect": 6.594}
{"compound": "Cc1c(NCc2ccc(C#N)cc2)cccc1S(=O)(=O)NC1CC1", "percent effect": -8.286}
{"compound": "Cn1cc(C[C@H]2[C@H](O)CCN2Cc2ccncc2)cn1.O=C(O)C(F)(F)F.O=C(O)C(F)(F)F", "percent effect": -9.912}
{"compound": "[H][C@@]12C[C@@H](C(=O)NC)N(C(C)C)[C@]1([H])CN(C(=O)c1ccccn1)C2", "percent effect": -17.74}
{"compound": "COc1ccc2c(c1)CC(NCc1cccc(NC(C)=O)c1)CC2", "stereo": "stereo unspecified", "percent effect": 16.92}
{"compound": "COc1cc(Cl)cc(C(=O)N2CCC3(CCCNC3)C2)c1", "stereo": "stereo unspecified", "percent effect": -30.03}
{"compound": "CC(C)Oc1cccc(CN(C)C(=O)Nc2cccn(C)c2=O)c1", "percent effect": 1.518}
{"compound": "O[C@H]1[C@H](n2cc(-c3ccccn3)nn2)c2ccccc2C12CCNCC2", "percent effect": 12.94}
{"compound": "Cc1noc(C)c1CN(C)Cc1cnc(N2CCOCC2)nc1", "percent effect": 11.37}
{"compound": "O=C(NCC1CC1)C1CN(C(=O)c2cccs2)CC12CCOCC2", "stereo": "stereo unspecified", "percent effect": 21.85}
{"compound": "Cc1noc(C)c1CNC(=O)N1CCC(OCC2CC2)CC1", "percent effect": -24.18}
{"compound": "O=C(O)C(F)(F)F.O=C(O)C(F)(F)F.[H][C@@]12CN(Cc3cc[nH]n3)C[C@]1([H])OCCN2C(C)C", "percent effect": -4.182}
{"compound": "CN(c1cccc(C#N)c1)S(=O)(=O)c1cc(C(=O)O)ccc1Cl", "percent effect": 5.984}
{"compound": "O=C(NC1CC2(CCN(CCO)CC2)c2ccccc21)c1ccncc1.O=C(O)C(F)(F)F.O=C(O)C(F)(F)F", "stereo": "stereo unspecified", "percent effect": 22.74}
{"compound": "CC1CCN(C(=O)Cc2ccc(S(=O)(=O)C(F)F)cc2)CC1", "percent effect": 23.36}
{"compound": "Cc1ccccc1CN(C)C(=O)c1cc(C2CCCN2C)ccn1", "stereo": "stereo unspecified", "percent effect": -29.67}
{"compound": "CN(Cc1ccc(N(C)C)cc1)C(=O)CS(=O)(=O)c1ccc(Cl)cc1", "percent effect": -13.69}
{"compound": "CCN1CCOCC2(CCCN(C(=O)c3ccncc3F)C2)C1.O=C(O)C(F)(F)F", "stereo": "stereo unspecified", "percent effect": -47.29}
{"compound": "O=C(c1ccoc1)N1CCC2(CC1)COC(COCc1ccccn1)C2", "stereo": "stereo unspecified", "percent effect": -15.37}
{"compound": "Cc1ccc(CN2CC3(CCN(C(=O)c4cscn4)C3)C2)o1.O=C(O)C(F)(F)F", "percent effect": 2.66}
{"compound": "CCN(C)c1ncnc2c1CCN(C(=O)NCc1cccnc1)CC2.O=C(O)C(F)(F)F", "percent effect": -26.71}
{"compound": "CN(C(=O)CN1CCC(c2cc3ccccc3[nH]2)CC1)C1CC1", "percent effect": -8.638}
{"compound": "NC(=O)C1CCN(C(=O)CCn2c(C(F)(F)F)cc3cccnc32)CC1", "percent effect": -16.53}
{"compound": "O=C(O)C(F)(F)F.[H][C@@]12CCN(C(=O)c3cscn3)[C@@]1([H])CCN2CC1CCOCC1", "percent effect": 5.771}
{"compound": "Cc1ccc(NC2COC3(CCN(CC(C)C)CC3)C2)nn1.O=C(O)C(F)(F)F", "stereo": "stereo unspecified", "percent effect": -17.89}
{"compound": "O=c1[nH]c(-c2ccncc2)ncc1-c1ccnc(N2CCOCC2)n1", "percent effect": 6.73}
{"compound": "Cc1nn(C)c(C)c1CN1CCCC(c2ccc(C(=O)O)cc2)C1", "stereo": "stereo unspecified", "percent effect": -7.617}
{"compound": "CC(C)(C)NC(=O)NC(=O)CN1C=Nc2ccccc2S1(=O)=O", "percent effect": -16.69}
{"compound": "CC(C)c1cc(C(=O)N2CCN(c3ccncc3)CC2)n(C)n1", "percent effect": 12.8}
{"compound": "COC(=O)c1ccc(NC(C)c2ccc3c(c2)CCC(=O)N3)nn1", "stereo": "stereo unspecified", "percent effect": 8.88}
{"compound": "Cc1cc(C(=O)NC2(c3ccc(Br)cc3)CC2)n(C)n1", "percent effect": 17.43}
{"compound": "CC(=O)N1CCCN(C(=O)C(C)n2cncn2)CC1", "stereo": "stereo unspecified", "percent effect": -31.14}
{"compound": "COCCCNC(=O)C1CN(C(=O)c2cnccn2)C1", "percent effect": -8.728}
{"compound": "COCCCC(=O)NCc1cccc(NC(N)=O)c1", "percent effect": -2.829}
{"compound": "Fc1cccc(C2CCCN2Cc2nnnn2C2CC2)c1", "stereo": "stereo unspecified", "percent effect": 43.38}
{"compound": "CC(O)CC(C)(C)CNC(=O)Nc1cnn(-c2ccccc2F)c1", "stereo": "stereo unspecified", "percent effect": 7.241}
{"compound": "CNc1nc2c(s1)C(c1c(F)cccc1Cl)CC(=O)N2", "stereo": "stereo unspecified", "percent effect": 108}
{"compound": "[H][C@@]12CCCO[C@]1([H])[C@H](OCC(=O)N(C)C)CN2Cc1c(C)noc1C", "percent effect": -12.43}
{"compound": "Nc1cc2c(nn1)CCN(C(=O)Cc1ccc3c(c1)CCCC3)C2", "percent effect": -18.78}
{"compound": "FC(F)(F)CCc1ncnn1-c1ccc2c(c1)OCO2", "percent effect": 17.73}
{"compound": "CCNc1ncc(C(=O)NCC2OCCc3ccccc32)cn1", "stereo": "stereo unspecified", "percent effect": 8.638}
{"compound": "CNC(=O)CCNC(=O)c1ccccc1N1CCOCC1", "percent effect": -24.83}
{"compound": "COc1cc(-n2cccc2)c(Cl)cc1C(N)=O", "percent effect": 15.4}
{"compound": "Cc1nc2ccccc2c(=O)n1Cc1nnnn1C1CC1", "percent effect": -30.01}
{"compound": "COc1c(CNC2CCc3c(Cl)cccc32)c(C)nn1C.Cl", "stereo": "stereo unspecified", "percent effect": 33.15}
{"compound": "O=C(NCc1cccnc1)N1CCc2ncnc(C3CC3)c2CC1.O=C(O)C(F)(F)F", "percent effect": 13.86}
{"compound": "Cc1cnc(C(=O)N2CCC3(CC2)CC(c2ccncc2)C(=O)N3)cn1", "stereo": "stereo unspecified", "percent effect": 6.15}
{"compound": "CN1C(=O)C2(CC(=O)Nc3[nH]ncc32)c2cc(Cl)ccc21", "stereo": "stereo unspecified", "percent effect": 9.602}
{"compound": "Cc1cnc2n(c1=O)CC(C(=O)NCc1ccccc1Cl)CS2", "stereo": "stereo unspecified", "percent effect": 7.096}
{"compound": "CCC(C)n1c(SCC(=O)N2CCOCC2)nc2cc(C)[nH]c2c1=O", "stereo": "stereo unspecified", "percent effect": 15.81}
{"compound": "Cc1nc(C)c(CN2CCOC[C@H](Oc3cnccn3)C2)s1", "percent effect": 16.37}
{"compound": "CCCn1ccnc1CN1CCN(C2CCOCC2)CC(C(N)=O)C1", "stereo": "stereo unspecified", "percent effect": -14.21}
{"compound": "CS(=O)(=O)N1Cc2nccn2CC(CN2CCCC2=O)C1", "stereo": "stereo unspecified", "percent effect": -12.65}
{"compound": "COc1cccc(CN2CCCC3(CCN(C(=O)[C@H]4CCCO4)C3)C2)c1", "stereo": "stereo partly specified", "percent effect": 6.885}
{"compound": "Cc1csc(N(C)C(=O)C2CC(=O)N(CCc3ccccc3)C2)n1", "stereo": "stereo unspecified", "percent effect": 27.25}

Some entries from above, unchanged:

{"compound": "COc1ccc2c(c1)CC(NCc1cccc(NC(C)=O)c1)CC2", "stereo": "stereo unspecified", "percent effect": 16.92}
{"compound": "O=C(NC1CC2(CCN(CCO)CC2)c2ccccc21)c1ccncc1.O=C(O)C(F)(F)F.O=C(O)C(F)(F)F", "stereo": "stereo unspecified", "percent effect": 22.74}
{"compound": "Cc1ccccc1CN(C)C(=O)c1cc(C2CCCN2C)ccn1", "stereo": "stereo unspecified", "percent effect": -29.67}

Source: ChEMBL document CHEMBL3988442, “University of Dundee, Small-Polar-MMV Screening Library” (2021).